{"source": "patent EP1126866B1", "about": "“A MUTANT PHOSPHOLAMBAN MOLECULE AND ITS USE IN THE TREATMENT OF CARDIAC DISEASE AND HEART FAILURE” (The Regents of the University of California, priority 1998, dated 2007)", "tested_on": "isolated mouse cardiomyocytes", "test": "Contraction cycle (length change) of isolated cardiomyocytes with penetratin-PLB peptide", "format": "cell-based", "conditions": "10 µM peptide", "note": "At least one peptide structure holds a part that was inferred or is arguable (an end, a ring closure or a residue). Where no end group is shown, it is not given here."}
{"sequence": "GGGGYGRKKRRQRRRMEKVQYLTRSAIRRASTIEM [TAT-PLB]", "values": [{"measurement": "effect on myocyte contraction versus controls", "setting": "T-test found no statistical difference, high variability", "result": "trend towards a larger, faster contraction"}, {"measurement": "Relax. Slope", "setting": "individual samples 1-7", "result": 6.9790}, {"measurement": "Δ Length/ msec.", "setting": "individual samples 1-7", "result": -36.071}]}
